According to patent US20050143356A1, “Selective inhibition of cyclooxygenase 1 in the treatment of diabetic nephropathy” (Vanderbilt University, priority 2003, published 2005):

System: C57BLKS db/db mice
Settings: 6 months treatment, untreated 298±35, p<0.01, n=8 in each group
Excerpt: The C57BLKS db/db mice is a rodent model of type II diabetes mellitus. A LepR^db (db) mutation on chromosome 4 (G→T point mutation) has been identified in the leptin receptor gene. This mutation generates a new donor splice site, leading to prematurely termination of the intracellular domain of leptin receptor and lack of leptin signal transduction. C57BLKS db/db strain is more susceptible to the development of diabetic nephropathy than the C57BL/6J db/db strain. Animals are characterized by obesity, insulin resistance, diabetes and diabetic nephropathy (DN). […]
Inhibitor was given for 6 months, while the control diabetic mice were given vehicle alone (n=8 per group). […] The urine samples were collected monthly and albumin/creatinine ratio was determined by enzyme linked immunosorbent assays (Exocell Inc, PA, USA). Glomerular filtration rate (GFR) was determined using FITC-inulin clearance based on plasma elimination rate following single bolus intravenous injection.
Cyclooxygenase-1 (COX-1) is also abundantly expressed in the kidney, however its role in health and disease remains poorly defined. […] Glomerular filtration rate was also determined using FITC-inulin clearance.

## COc1ccc(-n2nc(C(F)(F)F)cc2-c2ccc(Cl)cc2)cc1 [SC8560]
  Glomerular filtration rate (GFR), FITC-inulin clearance: 462±46 ul/min/mouse
